These results are taken from PubChem BioAssay AID1508600 (Functional Genomics Laboratory (NCATS/FGL), 2020).

Out of some 53,000 sequences screened, about 3,700 (7%) were called active.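 Rule for the calls: active = gene knockdowns whose robust z-score for IL-1 alpha signal is at least 2 or at most -2, so actives lie on both sides; inactive = the rest.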 The list shows a part of the results.

The nature of the experiment: Components of the Cytosolic LPS Sensing Pathway: Gene Identification via Genome-wide siRNA Screen.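 Note: robust z of the log signal after scaling to non-targeting control siRNA wells of the plate.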 The conditions noted are these: RAW264.7 macrophages, IL-1a HTRF, actives lie on both sides, screened at 100 nM (by protocol), cells primed 5 h with Pam3CSK4 first. In outline:
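Cells (RAW264.7, 1×10^4 per well) were transfected with siRNA at 100 nM and cultured 48h at 37 degrees C. Pam3CSK4 was added for 5 hours; LipidA transfection followed for 24 hour. IL-1a was then measured by HTRF.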
(Time-resolved FRET reads energy transfer from a long-lived donor to a nearby acceptor.)
Regarding GGAGGUUUUCAUGGUUAUCTT against Nrgn, the z-score is inactive: 0.0293.

In the case of GGUUCAAUGCUCCCUUCGATT against Ghrl, the z-score is inactive: 0.712.

On to GGGUAGACCUCAAUGAUAUTT against Klhl31, for which the z-score was inactive: -0.575.

On to GCUGGUGCUGUGCAUCUUUTT against Aqp2, for which the z-score is inactive: -0.922.

On to GCCAUUUGAAACUCUCCUGTT against Gstp3, for which the z-score was inactive: -1.71.

As for GGGUUUUAAGAAUCAGACUTT against Megf6, the z-score was inactive: 0.0599.

On to GGAGCUGUUUCCAGUUCAGTT against Tomm40, for which the z-score is inactive: -1.12.

For GGAAAUUUGCCGGCCAAAUTT against Fam83a, the z-score is inactive: 0.557.

As to CGACAAUACUCUAUUGUUUTT against Agbl2, the z-score was inactive: 1.87.

Regarding GGAGCAUUGCUCUUCUUCATT against Get4, the z-score is inactive: -0.073.

CCGUGUUCCGAGGAUAUGUTT against Cyp2e1: the z-score is inactive: -0.212.

As to GGUAAAGAUCUUUGAAGAGTT against Tnip1, the z-score is inactive: -0.172.

On to CGACAAACUCACCUUGUCCTT against Dusp21, for which the z-score is inactive: -0.584.

For GCAUGUUGAUCAAGACUUGTT against Cdk6, the z-score is inactive: -0.82.

Regarding GGACACGCUUCAAAUGGAUTT against Lcmt1, the z-score is inactive: 0.0561.

GGCCUUAUGGAGUAAACUUTT against Ang3: the z-score is inactive: 1.57.

As to GCAGUCCUCGUCCUCAAAGTT against Btbd10, the z-score is active: 2.16.

Regarding GGCACCCUAUUUGUCAACGTT against Lrrc24, the z-score is inactive: -0.784.

GGCUAUACUCUGAAUUCAATT against Zfp61: the z-score is inactive: 1.49.

Consider GGACAGCAAUAUUACACGUTT against Zfp39, for which the z-score was inactive: -0.211.

As for GGGCUCUUAUAACUCUUUATT against Calm4, the z-score is inactive: -0.142.

As to GGGAGUCACGAAAUUACAATT against Slco6c1, the z-score was inactive: -1.14.

GCAUUGAUGUGGUUAUAACTT against Llph: the z-score is inactive: -0.214.

With GGUCAGGCUUAUGAAUAUUTT against Reep4, the z-score is inactive: -0.534.

As to GGAAGGCAUAAGAAAACUGTT against Tbk1, the z-score was inactive: 1.91.

For the sequence GCUUUAGUGACGGCUCGAATT against Zscan2, the z-score was active: 2.07.

For the sequence GGACAGAAUGCUGAUGUUUTT against Rgl1, the z-score was inactive: 0.484.

UUAUAUCCUGCCUUCUAUUTT against Psg28: the z-score is inactive: 0.0581.

Take GGAUACAACUCCUGUGAUGTT against Hbp1: the z-score is inactive: -0.405.

Take GGUGAAAAACAACAUCUGCTT against Coq4: the z-score is inactive: -0.987.

CCAGGAGUCGAGUGAUGGUTT against Rtl1: the z-score was inactive: 0.886.

For the sequence GGAUGUACUGAGUAGCUUUTT against Mical1, the z-score is inactive: 0.45.

As to CCAUCUAGGUUAUUACAUGTT against Dnaaf6, the z-score was inactive: 0.403.

With GGUAUUCAGUAUUUUGACUTT against Olfr196, the z-score is inactive: 1.56.

Turning to GGUGAUUGACAACACACUGTT against Cpne9, the z-score is inactive: -1.01.

For the sequence GGAAAGAAGAAAGUGCAAUTT against Tns1, the z-score is inactive: 0.0363.

On to GGCUGCUGACAUUUUCAUCTT against Lrrc28, for which the z-score was inactive: 1.53.

With GCUACUCCAAGGUGAAAGUTT against Tssk6, the z-score is inactive: 0.452.

For UGCUGGUGUCGUUAUGAAGTT against Pla2g12a, the z-score is inactive: -1.09.

For the sequence GGAGGAGGACAUCUUCAUCTT against Pex11g, the z-score was inactive: 1.57.

Take CCUUAUGGCCUACGACUUCTT against Chit1: the z-score was inactive: -0.968.

In the case of GGCAAUCCACCAAGUACAATT against Ptpn22, the z-score was inactive: 0.705.

For the sequence GAAAGUGGAAGCCACCAGUTT against Olfr110, the z-score is inactive: -0.474.

As to CCUCUCCUGGUCUUAACAGTT against Rem2, the z-score was inactive: 0.637.

For the sequence GGCCUUGUACACUUUGAUGTT against Ldah, the z-score is inactive: 0.622.

Take GGAUUUGAAAUAGGAAUAGTT against Sh3yl1: the z-score was inactive: 0.689.

GGCCUAAGAAAACUCCAGCTT against Atp5md: the z-score was inactive: -0.854.

Regarding GAUGCUAGUGAACCUCAUGTT against Olfr1020, the z-score is inactive: -0.765.

For the sequence GCGAAUGAGAUACGAGUACTT against Ust, the z-score is inactive: -0.224.

GGCACUUCCUCGCUAAUAUTT against St7: the z-score is inactive: 0.495.

For GCAAUUAGAGAUGAAGCAATT against Ndufaf1, the z-score is inactive: 0.894.

For the sequence GGAUAAGCGUAUUUCUUUGTT against Olfr1015, the z-score is inactive: -0.609.

As to CCGAAAAAUAUGUUUUCCGTT against Mettl4, the z-score is active: 2.87.

For the sequence GGAUCAAAGGAAGAAGGGCTT against Zbtb24, the z-score was inactive: -0.00585.

Turning to GGAUAUCUGUUGCAUGGCATT against Wdr36, the z-score is inactive: -1.12.

For the sequence GCUCAGGAUCGCUAUUACATT against Il12b, the z-score is inactive: -1.54.

For the sequence CCAAAGUAGAUGUGACCUATT against Rftn1, the z-score was inactive: -0.65.

Consider GGCCCUGCUUGUGUUUAAUTT against Ccdc71, for which the z-score was inactive: 1.22.

With GGACUACCUGGUACAGUCATT against Rhbdd2, the z-score was inactive: -0.411.

In the case of “CCUCAGAAAAAGAGUGUGCTT against 4930563M21Rik”, the z-score was inactive: 0.924.

On to GGGAUUGCUCACAUCUCUGTT against Sirpb1a, for which the z-score is inactive: 0.446.

With GGACUUCCUGACCAUCAUCTT against Tescl, the z-score is inactive: -0.354.

On to GGGAACAGUAUCUGAUUCATT against Polg, for which the z-score is active: 2.35.

For the sequence GGGAUUCAGAGUCAAGAUUTT against Thpo, the z-score is inactive: -0.275.

With GGAGCUACCAAGUUACUUCTT against Adgre4, the z-score is inactive: 0.592.

Consider GGGAGUGCCUUUAAAACACTT against Satb1, for which the z-score is inactive: 0.882.

In the case of GGUGUUAGCUACAGAGACCTT against Rab32, the z-score was inactive: 0.267.

In the case of GGCUUUCAGAGUUAACAAATT against Ptpn4, the z-score is inactive: -0.727.

Turning to CCCUACAGUACUAAUCAAATT against Ptgs2, the z-score was inactive: 0.6.

Consider “GCUUAUUUGUGGUACACGGTT against D030056L22Rik”, for which the z-score is inactive: 0.112.

In the case of GGACAGUUUCACGACAACGTT against Khsrp, the z-score was inactive: -0.392.

For the sequence UAAUAUCUGGCACUUUAUGTT against Ctxn1, the z-score is inactive: 0.0897.

In the case of GUCUUCCGGACAAGACAUATT against Hoxa6, the z-score was inactive: 1.09.

Turning to GGAAAUUGAAGCAAAGAAGTT against Myo3b, the z-score was inactive: 0.105.

With GGCAGAAUCAGUUGAAAUUTT against Terf2ip, the z-score was inactive: 0.917.

GGCCACCAUGAAAGACGACTT against Eif3j1: the z-score is inactive: 1.09.

GUAAUCUUCACCGCCUCUCTT against Olfr315: the z-score was inactive: 0.934.

CCAGUAUUCGCACAUCUCGTT against Olfm2: the z-score was inactive: 0.695.

In the case of GGAGAGAAAAAGUAAUAUCTT against Fgf1, the z-score was inactive: 0.843.

In the case of GCCUGUGAGAUCAUCUUUUTT against Pkd2, the z-score was inactive: -0.622.

For GGCAGAGCUAGAUCAAAUUTT against Retreg1, the z-score is active: 3.58.

Turning to GGUCAAGUCACUGCUUGAATT against Csta2, the z-score was inactive: -0.253.

For the sequence GGCCAAAAUCUCAACAUAUTT against Glcci1, the z-score was inactive: -1.36.

GGAAAACAAGCCUGUAUUUTT against Mbd4: the z-score was inactive: -0.57.

Turning to CCUUGGAGAGAGAAGACAUTT against Rpp38, the z-score was inactive: 0.292.

Regarding CGACCUAACCAACAUGCUUTT against Asap3, the z-score is inactive: 0.0248.

Regarding “GGGACAGUGUCCAGAAAAGTT against D130020L05Rik”, the z-score is inactive: -0.914.

On to GGUGCUUAAACUUCACCCUTT against Polg2, for which the z-score was inactive: 0.143.

In the case of GGAUGCUAUGCCAAAAACUTT against Csrp1, the z-score was inactive: -0.309.

Take GGUUAUGGACAUUCAUGCCTT against Meis2: the z-score is inactive: -0.592.

For GGAAUUCCUCCUAUGUUCATT against G3bp2, the z-score is inactive: -1.07.

Take GGUCUUGUGGUGGUACUACTT against Elovl2: the z-score is inactive: 1.77.

In the case of CCUUAGGAGUACUUAAAAATT against Isl1, the z-score is inactive: 0.0379.

As to GGAGGUUCUGCCCAUAACUTT against Whrn, the z-score was inactive: -0.686.

Regarding GGCCAUGCUGAGUUAGAUATT against Slc10a3, the z-score was inactive: 0.189.

GUAUGAACACGCAGCAAACTT against Mmd2: the z-score is inactive: 0.169.

GGUGUACAGUAUUUUAGUUTT against Clip4: the z-score was inactive: 1.12.

With GGGUCUACGAAGAAUAGGGTT against Cxcl14, the z-score is inactive: 0.744.

Turning to GGCAUGAGAAUUGGUCCAGTT against Ehd4, the z-score was inactive: -1.22.

Turning to GGCUGUGGAACACAUCAACTT against Eno3, the z-score is inactive: -0.787.

On to CGACUACCUGGAUAUCUACTT against Efna2, for which the z-score is inactive: -0.292.

For GGAUAUUUGGAGAGAGAGGTT against Lrrn2, the z-score is inactive: -0.895.

On to CGAAUUAUAGCAUUCAGCCTT against Map3k3, for which the z-score was inactive: 0.173.

As for GGGAACCAUCAAUAGGCACTT against Apol7a, the z-score is inactive: 0.923.

Regarding GCAUGAUUCACCUGACACCTT against Nkx2-1, the z-score is inactive: -0.91.

Regarding CGGAUAUGAGAUGAGAAUGTT against Morn4, the z-score is active: -2.4.

For the sequence GGCAGCACUACAAAACUUGTT against Rnf138rt1, the z-score was inactive: 0.193.
